The values that follow come from PubChem BioAssay AID493014 (National Center for Advancing Translational Sciences (NCATS), 2011).

Usually AC50 stands for the concentration giving half of the maximal activity seen.

Each structure is given as a SMILES string. Some of the results follow. Shown are side measurements of this screen, not its main read-out; they come without a call. Compounds called inactive in the main read-out are mostly missing here. The note in brackets gives the kind of curve behind each potency; many fits are weak.

The experiment is described as follows: qHTS Assay to Find Inhibitors of Chronic Active B-Cell Receptor Signaling. The conditions noted are these: ABC-DLBCL IkBa-CBG/CBR reporter, luminescence ratio (green luciferase fused to IkBa over red control in TMD8 lymphoma cells), 4 h. A digest of the protocol:
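TMD8 human ABC-DLBCL cells with doxycycline-inducible IκBα–green luciferase fusion and unfused red luciferase, in 0.5% FBS medium; compounds up to 46 uM, 4 h at 37C. Green/red luminescence ratio, filter-overlap corrected, fitted to concentration-response curves.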
In general terms: Quantitative high-throughput screening tests each substance at several concentrations.

Where [1] appears, read: measured here: CBR red luminescence, cell number.
[2] abbreviates: measured here: IkBa-CBG green luminescence.

`COc1cc(C(=O)/C=C/c2cccnc2)ccc1O`: the AC50 under setting [1] is 8.91 µM [falling, partial curve, poor fit].

As for `O=c1[nH]c(=S)n(C2CC2)c(O)c1/C=N/Nc1cccc2ccccc12`, the concentration at half-maximal activity (AC50) under setting [1] is 13 µM [falling, partial curve].

Take `O=C1C(c2ccccc2)=C(N2CC2)c2ccccc21`: the AC50 under setting [1] is 0.112 µM [rising, full curve, poor fit].

As for `CCOc1ccc(-n2cnc3scc(-c4ccc(OC)c(OC)c4)c3c2=O)cc1`, the AC50 under setting [1] was 11.2 µM [rising, partial curve, poor fit].

Regarding `COc1ccccc1C1C([N+](=O)[O-])=C(N)Oc2c1c(=O)oc1ccccc21` (stereo not given), the concentration at half-maximal activity (AC50) under setting [1] was 0.501 µM [falling, full curve].

Take `O=C(Cn1c(=O)oc2ccccc21)NCc1ccccc1Cl`: under setting [1], the AC50 is 5.01 µM [falling, full curve, poor fit].

Regarding `COc1ccc(Oc2cc(NC(=O)c3nn(C)cc3[N+](=O)[O-])cc([N+](=O)[O-])c2)cc1`, the half-maximal activity concentration (AC50) under setting [1] is 0.92 µM [falling, full curve, poor fit].

For the compound `CC1CCCC(C)N1C(=O)CSc1nc2c(c(=O)n(C)c(=O)n2C)n1C` (stereo not given), the concentration at half-maximal activity (AC50) under setting [1] was 4.47 µM [falling, full curve].

Consider `COC(=O)C1=C(c2ccc(F)cc2OCc2ccccc2)C[C@@H]2CC[C@H]1N2C(=O)NCc1ccccc1`, for which the AC50 under setting [1] is 29.1 µM [falling, single point].

In the case of `O=C1NC(=S)N(c2ccc(Br)cc2)C(=O)/C1=C/N1CCN(C(=O)c2ccco2)CC1`, under setting [1], the AC50 is 35.5 µM [rising, single point].

With `C/C(=N\N1CCCCC1)c1c(O)[nH]c(=O)[nH]c1=O`, the AC50 reads like this: under setting [1], 1.46 µM [rising, full curve, poor fit]; under setting [2], 5.8 µM [falling, partial curve, poor fit].

On to `COC(=O)C1=C(c2ccc(Cl)c(C(F)(F)F)c2)C[C@@H]2CC[C@H]1N2C(=O)NCCCOC(C)C`, for which, under setting [1], the AC50 was 29.1 µM [falling, single point].

For `O=C(CSc1n[nH]c(=O)n1C1CC1)Nc1cc(Cl)ccc1Oc1ccccc1`, the concentration at half-maximal activity (AC50) under setting [1] is 14.1 µM [falling, partial curve, poor fit].

As for `O=C1NC(=O)N(Cc2ccccc2)C(=O)/C1=C/C=C/c1ccco1`, the concentration at half-maximal activity (AC50) is 35.5 µM [rising, single point] under setting [1] and 35.5 µM [falling, single point] under setting [2].

Take `CC(C)(C)n1cc(C(=O)c2ccccc2OCCCF)cn1`: the AC50 under setting [1] was 0.251 µM [rising, full curve, poor fit].

As for `COc1cc(OC)c2c(c1)O[C@@H](c1ccc(OC)c(OC)c1)[C@H](O)C2`, the AC50 under setting [2] is 15.8 µM [falling, partial curve, poor fit].

With `Cn1c(=O)c2c(ncn2CCCl)n(C)c1=O`, under setting [1], the AC50 is 7.94 µM [falling, partial curve, poor fit].

Consider `CC[N+](CC)(CC)CCCOC(=O)C(O)(c1ccccc1)C1CCCCC1` (stereo not given), for which the AC50 under setting [1] is 23.1 µM [rising, single point].
